In the supplement of paper PMC6078165:
± gives the standard deviation of the averaged measurements. The reference is the same well before dosing, and untreated signal decays as well.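 Fibroblast labels denote human fibroblasts, mainly primary ones from uterus (C12385, HUF), lung (H6013), bone (Hs27A), adrenal (HADF) and skin (WS1), plus mammary HMF and breast cancer-associated Hs343T. Cancer cells are basal-like or mesenchymal-like triple-negative breast cancer lines. A hit is a response shift exceeding 3x replicate standard deviation. The tissue of the other fibroblasts is not given here.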

System: MDAMB231
Assay: relative JC-1 red fluorescence (viability) vs pre-drug, coculture with fibroblast (fraction); higher = more viable cancer cells
Procedure: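 JC-1 labelled TNBC cells cocultured 1:1 (1,500 cells each) with CellTrace Violet stained primary or stromal fibroblasts in 384-well plates in FluoroBrite medium, treated with one of 42 anticancer drugs at 0.1, 1, 10 or 100 uM. JC-1 red fluorescence (mitochondrial integrity in cancer cells only) was read by plate reader every 8 h for 72 h. Values are normalised to each well's pre-drug value. The stock of one drug was tenfold lower, so its dose labels may be too high.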

COc1cc([C@@H]2c3cc4c(cc3[C@@H](O[C@@H]3O[C@@H]5CO[C@@H](c6cccs6)O[C@H]5[C@H](O)[C@H]3O)[C@H]3COC(=O)[C@H]23)OCO4)cc(OC)c1O [Teniposide]
relative JC-1 red fluorescence
Conditions | 8 h | 16 h | 24 h | 32 h | 40 h | 48 h | 56 h | 64 h | 72 h
10 µM, coculture fibroblast: C12385 | 0.766 ± 0.027 | 0.766 ± 0.024 | 0.719 ± 0.039 | 0.71 ± 0.039 | 0.5934 ± 0.0042 | 0.497 ± 0.079 | 0.439 ± 0.12 | 0.414 ± 0.16 | 0.39 ± 0.17
10 µM, coculture fibroblast: H6013 | 0.901 ± 0.011 | 0.872 ± 0.018 | 0.854 ± 0.01 | 0.833 ± 0.011 | 0.783 ± 0.0088 | 0.74 ± 0.018 | 0.703 ± 0.013 | 0.665 ± 0.035 | 0.617 ± 0.033
10 µM, coculture fibroblast: H6019 | 0.7979 ± 0.0036 | 0.7682 ± 0.0015 | 0.748 ± 0.013 | 0.73 ± 0.012 | 0.678 ± 0.024 | 0.646 ± 0.024 | 0.628 ± 0.026 | 0.63 ± 0.0065 | 0.62 ± 0.022
10 µM, coculture fibroblast: H6076 | 0.886 ± 0.033 | 0.852 ± 0.032 | 0.817 ± 0.032 | 0.789 ± 0.015 | 0.732 ± 0.011 | 0.662 ± 0.027 | 0.614 ± 0.052 | 0.593 ± 0.072 | 0.574 ± 0.084
10 µM, coculture fibroblast: H6231 | 0.902 ± 0.01 | 0.865 ± 0.012 | 0.837 ± 0.031 | 0.793 ± 0.039 | 0.75 ± 0.035 | 0.708 ± 0.036 | 0.655 ± 0.055 | 0.632 ± 0.084 | 0.619 ± 0.088
10 µM, coculture fibroblast: HADF | 0.9108 ± 0.0079 | 0.9051 ± 0.0031 | 0.8839 ± 0.0027 | 0.86 ± 0.018 | 0.814 ± 0.024 | 0.753 ± 0.051 | 0.732 ± 0.06 | 0.699 ± 0.058 | 0.631 ± 0.048
10 µM, coculture fibroblast: HCFa | 0.914 ± 0.017 | 0.897 ± 0.021 | 0.87 ± 0.043 | 0.822 ± 0.077 | 0.749 ± 0.11 | 0.711 ± 0.12 | 0.676 ± 0.12 | 0.646 ± 0.11 | 0.598 ± 0.11
10 µM, coculture fibroblast: HCPF | 0.899 ± 0.033 | 0.874 ± 0.05 | 0.857 ± 0.038 | 0.848 ± 0.03 | 0.804 ± 0.032 | 0.766 ± 0.023 | 0.7345 ± 0.0025 | 0.7147 ± 0.005 | 0.689 ± 0.015
10 µM, coculture fibroblast: HHSteC | 0.914 ± 0.021 | 0.907 ± 0.016 | 0.884 ± 0.02 | 0.842 ± 0.025 | 0.79 ± 0.014 | 0.756 ± 0.015 | 0.695 ± 0.016 | 0.66 ± 0.015 | 0.62 ± 0.026
10 µM, coculture fibroblast: HMF | 0.9086 ± 0.003 | 0.8758 ± 0.0063 | 0.83737 ± 0.0008 | 0.8111 ± 0.008 | 0.768 ± 0.0087 | 0.7089 ± 0.0015 | 0.667 ± 0.011 | 0.64 ± 0.018 | 0.62 ± 0.026
10 µM, coculture fibroblast: HPFa | 0.946 ± 0.012 | 0.943 ± 0.02 | 0.901 ± 0.019 | 0.844 ± 0.03 | 0.7945 ± 0.0058 | 0.752 ± 0.013 | 0.6592 ± 0.0059 | 0.626 ± 0.012 | 0.585 ± 0.032
10 µM, coculture fibroblast: HUF | 0.849 ± 0.02 | 0.795 ± 0.022 | 0.812 ± 0.036 | 0.728 ± 0.012 | 0.68 ± 0.0082 | 0.684 ± 0.012 | 0.639 ± 0.032 | 0.65 ± 0.035 | 0.644 ± 0.036
10 µM, coculture fibroblast: Hs5 | 0.934 ± 0.081 | 0.896 ± 0.083 | 0.864 ± 0.093 | 0.806 ± 0.091 | 0.744 ± 0.055 | 0.673 ± 0.033 | 0.626 ± 0.017 | 0.595 ± 0.0066 | 0.568 ± 0.023
10 µM, coculture fibroblast: Hs27A | 0.8837 ± 0.0081 | 0.865 ± 0.0091 | 0.833 ± 0.015 | 0.819 ± 0.024 | 0.771 ± 0.026 | 0.733 ± 0.015 | 0.722 ± 0.01 | 0.7039 ± 0.0056 | 0.652 ± 0.0016
10 µM, coculture fibroblast: Hs343T | 0.874 ± 0.023 | 0.8388 ± 0.0032 | 0.818 ± 0.02 | 0.809 ± 0.035 | 0.751 ± 0.049 | 0.704 ± 0.051 | 0.659 ± 0.072 | 0.644 ± 0.061 | 0.626 ± 0.064
10 µM, coculture fibroblast: WS1 | 0.7578 ± 0.00081 | 0.7484 ± 0.0063 | 0.662 ± 0.027 | 0.68 ± 0.016 | 0.626 ± 0.022 | 0.581 ± 0.04 | 0.534 ± 0.042 | 0.525 ± 0.046 | 0.499 ± 0.053
100 µM, coculture fibroblast: C12385 | 0.823 ± 0.023 | 0.819 ± 0.033 | 0.825 ± 0.054 | 0.851 ± 0.065 | 0.796 ± 0.043 | 0.766 ± 0.022 | 0.75 ± 0.047 | 0.78 ± 0.064 | 0.774 ± 0.062
100 µM, coculture fibroblast: H6013 | 0.9364 ± 0.0017 | 0.9358 ± 0.0015 | 0.9289 ± 0.0066 | 0.9441 ± 0.0061 | 0.953 ± 0.02 | 0.948 ± 0.027 | 0.928 ± 0.028 | 0.904 ± 0.045 | 0.85 ± 0.041
100 µM, coculture fibroblast: H6019 | 0.825 ± 0.00095 | 0.7885 ± 0.0052 | 0.826 ± 0.021 | 0.838 ± 0.015 | 0.8373 ± 0.0047 | 0.88063 ± 0.00019 | 0.906 ± 0.01 | 0.968 ± 0.0017 | 0.9757 ± 0.0068
100 µM, coculture fibroblast: H6076 | 0.9271 ± 0.0055 | 0.9289 ± 0.0078 | 0.935 ± 0.016 | 0.925 ± 0.032 | 0.934 ± 0.036 | 0.936 ± 0.041 | 0.932 ± 0.04 | 0.932 ± 0.023 | 0.919 ± 0.044
100 µM, coculture fibroblast: H6231 | 0.9571 ± 0.0047 | 0.9245 ± 0.0025 | 0.912 ± 0.014 | 0.915 ± 0.049 | 0.939 ± 0.086 | 0.83 ± 0.095 | 0.89 ± 0.044 | 0.902 ± 0.031 | 0.815 ± 0.12
100 µM, coculture fibroblast: HADF | 0.93 ± 0.011 | 0.93058 ± 0.0004 | 0.937 ± 0.014 | 0.957 ± 0.012 | 0.9469 ± 0.0077 | 0.927 ± 0.0092 | 0.924 ± 0.014 | 0.9237 ± 0.0026 | 0.884 ± 0.023
100 µM, coculture fibroblast: HCFa | 0.9452 ± 0.0032 | 0.9186 ± 0.0048 | 0.9359 ± 0.0032 | 0.963 ± 0.028 | 0.88 ± 0.089 | 0.958 ± 0.029 | 0.9621 ± 0.0048 | 0.941 ± 0.029 | 0.92 ± 0.053
100 µM, coculture fibroblast: HCPF | 0.961 ± 0.032 | 0.906 ± 0.041 | 0.901 ± 0.043 | 0.927 ± 0.09 | 0.904 ± 0.085 | 0.88 ± 0.086 | 0.876 ± 0.059 | 0.884 ± 0.063 | 0.872 ± 0.011
100 µM, coculture fibroblast: HHSteC | 0.9468 ± 0.004 | 0.95889 ± 0.00085 | 0.9518 ± 0.0057 | 0.963 ± 0.011 | 0.9676 ± 0.005 | 0.962 ± 0.021 | 0.918 ± 0.044 | 0.913 ± 0.033 | 0.874 ± 0.031
100 µM, coculture fibroblast: HMF | 0.947 ± 0.024 | 0.931 ± 0.039 | 0.944 ± 0.032 | 0.928 ± 0.046 | 0.921 ± 0.035 | 0.897 ± 0.03 | 0.873 ± 0.063 | 0.875 ± 0.064 | 0.861 ± 0.031
100 µM, coculture fibroblast: HPFa | 0.9584 ± 0.002 | 0.974 ± 0.012 | 0.9714 ± 0.0079 | 0.9881 ± 0.0031 | 0.91 ± 0.12 | 0.804 ± 0.094 | 0.918 ± 0.07 | 0.928 ± 0.054 | 0.959 ± 0.054
100 µM, coculture fibroblast: HUF | 0.924 ± 0.024 | 0.872 ± 0.043 | 0.934 ± 0.049 | 0.88 ± 0.046 | 0.864 ± 0.039 | 0.912 ± 0.034 | 0.903 ± 0.051 | 0.943 ± 0.061 | 0.87 ± 0.028
100 µM, coculture fibroblast: Hs5 | 0.9458 ± 0.0092 | 0.9705 ± 0.0026 | 0.868 ± 0.025 | 0.891 ± 0.03 | 0.763 ± 0.075 | 0.95 ± 0.028 | 0.864 ± 0.17 | 0.847 ± 0.18 | 0.845 ± 0.15
100 µM, coculture fibroblast: Hs27A | 0.9558 ± 0.0072 | 0.957 ± 0.016 | 0.964 ± 0.017 | 0.874 ± 0.13 | 0.932 ± 0.029 | 0.87 ± 0.084 | 0.852 ± 0.1 | 0.813 ± 0.15 | 0.896 ± 0.048
100 µM, coculture fibroblast: Hs343T | 0.963 ± 0.022 | 0.947 ± 0.052 | 0.914 ± 0.011 | 0.86 ± 0.032 | 0.8426 ± 0.0061 | 0.906 ± 0.11 | 0.9 ± 0.13 | 0.786 ± 0.048 | 0.788 ± 0.037
100 µM, coculture fibroblast: WS1 | 0.827 ± 0.016 | 0.7904 ± 0.0059 | 0.8509 ± 0.0026 | 0.8208 ± 0.0022 | 0.842 ± 0.011 | 0.879 ± 0.013 | 0.875 ± 0.035 | 0.928 ± 0.055 | 0.94 ± 0.04
